Measured values: patent US20040214798A1 (priority 2003, published 2004)
pIC50: −log10 of the molar value. At least one structure is not confirmed: it was looked up by name or label, or the drawing left a doubt. Some results were stated once for a whole list of compounds, not compound by compound.

Experiments:
T116 cells = format: cell-based, Chinese hamster
F179 cells = details: read-out: IC50 F179; 72 hours drug exposure; vector-only control cells

SMILES | Fold more toxic/selective in E. coli nitroreductase-expressing T116 cells versus cells not expressing the enzyme (T116 cells) | pIC50 (F179 cells)
O=[N+]([O-])c1ccc2c(c1)NP(=O)(N(CCCl)CCCl)OC2 (stereo not shown) [Compound 9c, 7-Nitro-2-[bis(2-chloroethyl)amino]-3,1,2-benzoxazaphosphorinane-2-oxide] | over 30 fold | 
O=[N+]([O-])c1ccc([C@@H]2CCN[P@](=O)(N(CCCl)CCCl)O2)cc1 [Compound 13c, 2-[Bis(2-chloroethyl)amino]-6-(p-nitrophenyl)-2H-1,3,2-oxazaphosphorinane 2-oxide] | over 20,000 fold | 
NP(=O)(OCc1ccc([N+](=O)[O-])cc1)N(CCCl)CCCl (stereo not shown) [Compound 15c, 4-nitrobenzyl N,N-bis(2-chloroethyl)phosphordiamidate] | over 20,000 fold | 
O=[N+]([O-])c1ccc([C@@H]2CCN[P@](=O)(N(CCCl)CCCl)O2)cc1 [trans-13c, 2-[Bis(2-chloroethyl)amino]-6-(p-nitrophenyl)-2H-1,3,2-oxazaphosphorinane 2-oxide] |  | 3.22
